PMC7418191
No constants are given. Whether binding was seen depends on the method and setting. Binding seen in cells or lysates may run through a third protein. Some results given as binding are weak or reduced against the parent protein; the word gives no strength.

Sequences of proteins named here, by UniProt entry; tags and fusion partners are left off.
UniProt Q99527: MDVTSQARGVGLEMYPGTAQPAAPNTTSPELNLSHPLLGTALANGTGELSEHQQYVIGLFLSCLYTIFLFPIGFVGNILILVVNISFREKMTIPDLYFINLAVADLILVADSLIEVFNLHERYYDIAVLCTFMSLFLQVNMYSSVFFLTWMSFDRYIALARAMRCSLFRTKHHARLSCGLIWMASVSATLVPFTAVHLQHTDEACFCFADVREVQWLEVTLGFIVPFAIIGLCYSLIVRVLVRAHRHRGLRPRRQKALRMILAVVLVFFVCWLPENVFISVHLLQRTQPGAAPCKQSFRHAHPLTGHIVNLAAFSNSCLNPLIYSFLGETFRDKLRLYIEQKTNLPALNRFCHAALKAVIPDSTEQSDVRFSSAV
UniProt P01100: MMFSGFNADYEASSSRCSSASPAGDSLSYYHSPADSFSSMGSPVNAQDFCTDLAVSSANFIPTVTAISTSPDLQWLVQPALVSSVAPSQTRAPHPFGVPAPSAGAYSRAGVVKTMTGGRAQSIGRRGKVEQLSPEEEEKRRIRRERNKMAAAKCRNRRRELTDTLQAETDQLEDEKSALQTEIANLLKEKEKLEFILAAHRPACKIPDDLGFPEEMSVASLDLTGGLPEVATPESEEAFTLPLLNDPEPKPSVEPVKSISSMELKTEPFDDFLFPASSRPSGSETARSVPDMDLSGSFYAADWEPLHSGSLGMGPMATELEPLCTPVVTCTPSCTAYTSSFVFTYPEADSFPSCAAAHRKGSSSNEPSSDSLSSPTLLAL
UniProt Q16665: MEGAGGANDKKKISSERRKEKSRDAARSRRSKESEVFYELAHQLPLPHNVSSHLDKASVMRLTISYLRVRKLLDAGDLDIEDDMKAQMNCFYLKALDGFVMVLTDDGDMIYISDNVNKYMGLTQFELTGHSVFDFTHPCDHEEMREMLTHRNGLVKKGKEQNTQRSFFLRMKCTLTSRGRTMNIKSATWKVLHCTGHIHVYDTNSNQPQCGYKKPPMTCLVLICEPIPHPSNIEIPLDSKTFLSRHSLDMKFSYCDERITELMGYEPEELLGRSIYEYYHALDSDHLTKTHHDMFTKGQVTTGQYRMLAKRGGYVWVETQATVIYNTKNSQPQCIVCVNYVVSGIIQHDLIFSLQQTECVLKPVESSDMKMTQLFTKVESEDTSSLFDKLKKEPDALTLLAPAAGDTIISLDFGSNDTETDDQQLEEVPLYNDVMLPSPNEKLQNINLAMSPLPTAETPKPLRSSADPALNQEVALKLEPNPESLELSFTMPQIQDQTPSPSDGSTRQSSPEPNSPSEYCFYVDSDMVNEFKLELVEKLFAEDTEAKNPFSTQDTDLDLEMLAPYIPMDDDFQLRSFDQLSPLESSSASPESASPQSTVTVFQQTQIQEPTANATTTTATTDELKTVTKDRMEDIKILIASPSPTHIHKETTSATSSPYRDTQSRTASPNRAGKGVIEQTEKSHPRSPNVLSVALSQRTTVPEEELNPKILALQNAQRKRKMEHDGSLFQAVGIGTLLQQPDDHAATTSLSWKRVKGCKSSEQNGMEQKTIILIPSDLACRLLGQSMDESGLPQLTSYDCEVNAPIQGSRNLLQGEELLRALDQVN

How the values were obtained:
[1] = target: G protein estrogen receptor (human (endogenous in MDA-MB-231)) (UniProt Q99527); assay: co-IP; MDA-MB-231 cells cultured in normoxia or hypoxia (2% O2), lysed in RIPA buffer; 200 μg protein incubated 2 h with anti-c-fos or anti-GPER antibody and Protein A/G agarose; immunoblot of the immunocomplexes; nonspecific IgG as control
[2] = target: c-fos (human (endogenous in MDA-MB-231)) (UniProt P01100); assay: as above

binding [1]: binds | binding [2]: binds
Substance: hypoxia inducible factor-1α (from UniProt Q16665 1-826)
